Record: PubChem BioAssay AID1259405 (NCATS, 2018)
Purpose: 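Mouse-designed siRNAs used to find CHO productivity engineering targets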 (primary screen). Cell system: Chinese hamster CHO-K1 ovary cells with stable secreted eGFP expression. Reagent: single siRNA against mouse genes, 0.8 pmol siRNA per well (2 µl of 400 nM stock). Duration: 3 days. Measurement: 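Per-well intracellular GFP measured by laser scanning cytometry, plus viability from ATP luminescence, each relative to plate median of non-targeting control wells, in %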. Scale: GFP, % of control: higher = more GFP per well, higher productivity; viability (ATP), % of control: higher = more viable cells (more ATP). Call rule: 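a knock-down is called active if GFP reaches 120% or more of non-targeting control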.
In all, the deposit lists about 50,000 reagents; shown is an unselected part. About 4,000 of them (8%) count as active. 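Mouse siRNA library applied to hamster cells; one well for each siRNA.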 The numbers tell different reagents against one gene apart.

gene	siRNA no.	GFP, % of control	viability (ATP), % of control	Call
Tpte (transmembrane phosphatase with tensin homology)	1	69.3	70.4	inactive
Tpte (transmembrane phosphatase with tensin homology)	2	92.6	74.5	inactive
Tpte (transmembrane phosphatase with tensin homology)	3	90.8	89.8	inactive
Hmx2 (H6 homeobox 2)	1	67.1	68.5	inactive
Hmx2 (H6 homeobox 2)	2	75.9	84.3	inactive
Hmx2 (H6 homeobox 2)	3	40.9	49.5	inactive
Stfa2l1 (stefin A2 like 1)	1	117	100	inactive
Stfa2l1 (stefin A2 like 1)	2	45.1	74.2	inactive
Stfa2l1 (stefin A2 like 1)	3	109	106	inactive
Casp7 (caspase 7)	1	26.6	39.8	inactive
Casp7 (caspase 7)	2	93.4	78.8	inactive
Casp7 (caspase 7)	3	66.7	81.2	inactive
Hnrnpdl (heterogeneous nuclear ribonucleoprotein D-like)	1	75.3	94.7	inactive
Hnrnpdl (heterogeneous nuclear ribonucleoprotein D-like)	2	76.4	87.3	inactive
Hnrnpdl (heterogeneous nuclear ribonucleoprotein D-like)	3	59.6	32.6	inactive
Cd52 (CD52 antigen)	1	72.5	88	inactive
Cd52 (CD52 antigen)	2	117	75.7	inactive
Cd52 (CD52 antigen)	3	76	105	inactive

Continued; the last 5 above are carried over.
gene	siRNA no.	GFP, % of control	viability (ATP), % of control	Call
Hnrnpdl (heterogeneous nuclear ribonucleoprotein D-like)	2	76.4	87.3	inactive
Hnrnpdl (heterogeneous nuclear ribonucleoprotein D-like)	3	59.6	32.6	inactive
Cd52 (CD52 antigen)	1	72.5	88	inactive
Cd52 (CD52 antigen)	2	117	75.7	inactive
Cd52 (CD52 antigen)	3	76	105	inactive
Ctu1 (cytosolic thiouridylase subunit 1)	1	75.3	74.3	inactive
Ctu1 (cytosolic thiouridylase subunit 1)	2	77.1	103	inactive
Ctu1 (cytosolic thiouridylase subunit 1)	3	103	134	inactive
Mapk8ip1 (mitogen-activated protein kinase 8 interacting protein 1)	1	71.8	89.6	inactive
Mapk8ip1 (mitogen-activated protein kinase 8 interacting protein 1)	2	56.3	60.4	inactive
Tmed6 (transmembrane p24 trafficking protein 6)	1	81.2	77.1	inactive
Tmed6 (transmembrane p24 trafficking protein 6)	2	91	94.1	inactive
Tmed6 (transmembrane p24 trafficking protein 6)	3	73.9	75.7	inactive
Stn1 (STN1, CST complex subunit)	1	44	36.2	inactive
Stn1 (STN1, CST complex subunit)	2	63.5	83.9	inactive
Stn1 (STN1, CST complex subunit)	3	98.1	55.8	inactive
Or4f53 (olfactory receptor family 4 subfamily F member 53)	1	110	91.8	inactive
Or4f53 (olfactory receptor family 4 subfamily F member 53)	2	41.3	47.8	inactive
Or4f53 (olfactory receptor family 4 subfamily F member 53)	3	65.7	92.8	inactive
Supt3 (SPT3, SAGA and STAGA complex component)	1	65.7	77.7	inactive
Supt3 (SPT3, SAGA and STAGA complex component)	2	69.1	63.6	inactive
Supt3 (SPT3, SAGA and STAGA complex component)	3	79.7	84.6	inactive
